The record followed here is patent US20170348337A1 (priority 2014, published 2017).

HELM strings list residues between dots; [ac] is acetyl, [am] amide, other brackets name non-standard units.

The data set can be described thus: general procedure: Fmoc solid-phase peptide synthesis; 2-chlorotrityl chloride resin; HBTU/HOBt/DIEA. To be noted: whole synthesis, scale 0.073 mmol.

With “PEPTIDE1{R.Q.I.K.I.W.F.Q.N.R.R.W}$$$$V2.0”, the isolated mass is 78.3 mg and the isolated yield is given as 47%.
